Experimental data reported in US20220047631A1 (UNIVERSITY OF CHICAGO, published 2022).
Where no end group is shown, it is not given here. The star is where a group is joined. GalNAc = N-acetyl galactosamine (O-linked to Thr, Tn antigen); Biotin = O=C1N[C@H]2[C@H](CS[C@H]2CCCCC(=O)*)N1

Target: T1, Tn-OTS8 peptide ERGT(GalNAc)KPPLEELSGK-biotin, monomer (murine)
T1 construct: also called glycosylated OTS-8 peptide (biotinylated)
T1 peptide: ERGT(GalNAc)KPPLEELSGK(Biotin)
Test: flow cytometry of yeast-displayed clone with 1 or 10 nM Tn-OTS8 peptide
Procedure: FIG. 20. […] 10 clones were isolated from Tn-OTS8 peptide-sorted post-sort-4 and post-sort-5 populations. Each clone was stained with 1 or 10 nM Tn-OTS8 peptide and analyzed by flow cytometry. The mean fluorescence units (MFUs) of each clone is plotted on Y-axis. […] In addition, plasmid DNA was isolated from each clone to determine the kind of mutation(s), and frequency of mutation(s) (n). The sequence of wild-type (wt) and mutated residues is shown in black and maroon, respectively.

B1: --WS (wt: STHV) (scFv)
scFv (VL-linker-VH): DIQLTQSPLSLPVSLGDQASISCRSSQSLVHSNGNTYLHWYLQKPGQSPKLLIYKVSNRFSGVPDRFSGSGSGTDFTLKISSVEAEDLGVYFCSQSTWSPTFGGGTKLEIKGGGGSGGGGSGGGGSQVQLQQSGGGLVQPGGSMKIFCAASGFTFSDAWMDWVRQSPEKGLEWVAEIRNKANNHETYYAESVKGRFTITRDDSKSRMSLQMNSLRAEDTGIYYCSGGKVRNAYWGQGTTVTVSS
notes: isolated after sort 4 with Tn-OTS8p; also called clones O4-5, O4-8
B1: binds.
